Source: article PMC3911986
Results are given in words; binding and its absence hold for the method and conditions named. In cells and extracts the contact can be indirect. Some binding calls cover weakened binding; strength is not graded here. Values belong to the molecule of their own block, whether it stands above or below them.

Sequences of proteins named here, by UniProt entry; tags and fusion partners are left off.
UniProt Q91ZW3: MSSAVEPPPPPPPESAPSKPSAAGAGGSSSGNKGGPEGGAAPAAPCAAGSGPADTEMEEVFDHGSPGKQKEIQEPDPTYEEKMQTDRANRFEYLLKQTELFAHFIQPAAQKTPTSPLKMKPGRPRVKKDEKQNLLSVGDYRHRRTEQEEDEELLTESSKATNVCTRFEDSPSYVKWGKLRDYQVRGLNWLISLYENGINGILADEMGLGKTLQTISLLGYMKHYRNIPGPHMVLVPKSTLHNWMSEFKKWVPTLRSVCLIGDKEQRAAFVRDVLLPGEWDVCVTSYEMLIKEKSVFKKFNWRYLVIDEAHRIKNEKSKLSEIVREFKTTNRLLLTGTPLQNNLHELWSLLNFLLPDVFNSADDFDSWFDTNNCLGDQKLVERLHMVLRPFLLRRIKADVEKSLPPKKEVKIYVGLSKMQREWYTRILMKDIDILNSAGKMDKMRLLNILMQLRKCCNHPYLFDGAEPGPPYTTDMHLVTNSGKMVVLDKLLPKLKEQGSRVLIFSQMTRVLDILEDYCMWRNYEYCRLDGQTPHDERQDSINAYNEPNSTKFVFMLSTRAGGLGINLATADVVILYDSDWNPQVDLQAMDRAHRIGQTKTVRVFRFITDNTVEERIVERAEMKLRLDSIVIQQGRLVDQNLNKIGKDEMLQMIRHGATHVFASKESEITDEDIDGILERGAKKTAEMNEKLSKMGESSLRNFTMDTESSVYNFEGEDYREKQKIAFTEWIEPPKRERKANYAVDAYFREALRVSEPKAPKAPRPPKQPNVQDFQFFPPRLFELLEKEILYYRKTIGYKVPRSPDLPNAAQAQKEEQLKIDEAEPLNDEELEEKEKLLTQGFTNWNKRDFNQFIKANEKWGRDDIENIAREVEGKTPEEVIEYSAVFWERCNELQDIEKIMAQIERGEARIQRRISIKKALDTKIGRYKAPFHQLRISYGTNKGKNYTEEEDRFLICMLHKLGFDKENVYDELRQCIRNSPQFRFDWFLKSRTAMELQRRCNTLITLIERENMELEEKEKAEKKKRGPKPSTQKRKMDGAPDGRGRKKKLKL
UniProt O60264: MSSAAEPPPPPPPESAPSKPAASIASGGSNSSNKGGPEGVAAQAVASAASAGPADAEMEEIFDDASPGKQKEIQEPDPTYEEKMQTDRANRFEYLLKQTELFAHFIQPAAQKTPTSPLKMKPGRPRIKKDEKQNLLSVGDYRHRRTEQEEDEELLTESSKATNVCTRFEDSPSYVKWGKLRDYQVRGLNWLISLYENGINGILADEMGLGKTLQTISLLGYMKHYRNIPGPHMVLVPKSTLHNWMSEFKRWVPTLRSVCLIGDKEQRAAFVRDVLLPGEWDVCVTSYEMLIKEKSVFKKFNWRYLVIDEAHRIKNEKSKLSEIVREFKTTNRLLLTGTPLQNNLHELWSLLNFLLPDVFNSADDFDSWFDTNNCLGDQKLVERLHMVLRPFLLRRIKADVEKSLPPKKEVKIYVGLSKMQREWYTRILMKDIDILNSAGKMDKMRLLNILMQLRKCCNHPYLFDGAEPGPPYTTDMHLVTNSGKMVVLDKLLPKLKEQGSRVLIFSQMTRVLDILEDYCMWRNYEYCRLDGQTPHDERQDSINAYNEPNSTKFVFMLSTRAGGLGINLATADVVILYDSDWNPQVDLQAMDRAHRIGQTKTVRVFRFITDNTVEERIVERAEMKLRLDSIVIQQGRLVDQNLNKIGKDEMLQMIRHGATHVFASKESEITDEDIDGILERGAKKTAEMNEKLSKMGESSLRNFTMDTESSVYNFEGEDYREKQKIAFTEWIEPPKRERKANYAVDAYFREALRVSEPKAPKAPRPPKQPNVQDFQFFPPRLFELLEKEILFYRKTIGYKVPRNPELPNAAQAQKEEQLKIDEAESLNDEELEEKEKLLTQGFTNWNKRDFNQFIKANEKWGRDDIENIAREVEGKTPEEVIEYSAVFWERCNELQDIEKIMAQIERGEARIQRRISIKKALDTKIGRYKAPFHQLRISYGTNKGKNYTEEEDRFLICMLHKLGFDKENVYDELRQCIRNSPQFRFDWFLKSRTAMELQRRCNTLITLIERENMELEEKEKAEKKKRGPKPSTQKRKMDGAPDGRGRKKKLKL

Key:
[1] = target: T1, CTCF (CCCTC-binding factor), human (human (endogenous in K562)) (UniProt P49711); experiment: co-IP; K562 cells lysed in RIPA, gently sonicated; 100 ug precleared extract with anti-Ctcf or anti-Smarca5 3 hrs at 4 C, then protein A/protein G overnight; washes up to 500 mM NaCl; immunoblot
T1 sequence: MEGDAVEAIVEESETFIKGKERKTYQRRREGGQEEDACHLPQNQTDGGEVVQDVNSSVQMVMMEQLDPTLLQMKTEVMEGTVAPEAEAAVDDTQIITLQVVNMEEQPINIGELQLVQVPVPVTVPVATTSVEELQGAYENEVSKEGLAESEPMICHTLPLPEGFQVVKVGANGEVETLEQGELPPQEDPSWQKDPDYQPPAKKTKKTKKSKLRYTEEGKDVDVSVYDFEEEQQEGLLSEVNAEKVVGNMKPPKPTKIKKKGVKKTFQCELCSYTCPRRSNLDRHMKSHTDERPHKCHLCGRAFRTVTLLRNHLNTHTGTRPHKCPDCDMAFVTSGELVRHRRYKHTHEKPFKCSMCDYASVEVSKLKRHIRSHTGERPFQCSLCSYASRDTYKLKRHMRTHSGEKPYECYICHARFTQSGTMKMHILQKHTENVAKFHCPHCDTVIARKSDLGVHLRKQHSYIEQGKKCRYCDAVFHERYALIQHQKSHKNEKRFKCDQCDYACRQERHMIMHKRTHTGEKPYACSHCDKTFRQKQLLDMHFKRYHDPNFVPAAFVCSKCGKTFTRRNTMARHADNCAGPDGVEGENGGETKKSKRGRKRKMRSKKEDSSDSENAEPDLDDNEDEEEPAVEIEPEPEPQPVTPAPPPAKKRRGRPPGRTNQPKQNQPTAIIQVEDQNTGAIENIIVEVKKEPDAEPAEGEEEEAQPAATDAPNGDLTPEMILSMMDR

[2] = target: T2, Ctcf (CCCTC-binding factor), mouse (mouse (endogenous in MEL)) (UniProt Q61164); experiment: co-IP; MEL cells lysed in RIPA, gently sonicated; 100 ug precleared extract with anti-Ctcf or anti-Smarca5 3 hrs at 4 C, then protein A/protein G overnight; washes up to 500 mM NaCl; immunoblot
T2 sequence: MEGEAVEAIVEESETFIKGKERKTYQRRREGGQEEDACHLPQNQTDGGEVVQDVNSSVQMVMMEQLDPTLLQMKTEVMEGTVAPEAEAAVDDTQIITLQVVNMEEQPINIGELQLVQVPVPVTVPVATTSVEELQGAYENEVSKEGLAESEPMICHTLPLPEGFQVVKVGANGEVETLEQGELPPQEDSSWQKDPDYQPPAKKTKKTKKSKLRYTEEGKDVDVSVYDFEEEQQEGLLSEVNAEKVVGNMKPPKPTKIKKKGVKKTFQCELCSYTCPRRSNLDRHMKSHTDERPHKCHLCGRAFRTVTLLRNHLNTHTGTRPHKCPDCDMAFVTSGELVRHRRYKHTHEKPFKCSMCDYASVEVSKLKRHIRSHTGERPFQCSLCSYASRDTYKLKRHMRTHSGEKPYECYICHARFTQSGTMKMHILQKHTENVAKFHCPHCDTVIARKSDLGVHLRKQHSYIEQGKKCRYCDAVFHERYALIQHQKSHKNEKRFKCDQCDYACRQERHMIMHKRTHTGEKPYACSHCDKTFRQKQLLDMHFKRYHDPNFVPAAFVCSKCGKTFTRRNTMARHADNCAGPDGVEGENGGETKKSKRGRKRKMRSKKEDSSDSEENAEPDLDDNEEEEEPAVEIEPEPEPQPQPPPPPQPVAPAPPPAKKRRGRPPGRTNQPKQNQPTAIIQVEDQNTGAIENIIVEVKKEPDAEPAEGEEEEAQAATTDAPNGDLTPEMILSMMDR

[3] = target: Smarca5 (Snf2h), ISWI ATPase, mouse (mouse (endogenous in MEL)) (UniProt Q91ZW3); experiment: as above
[4] = target: SMARCA5 (SNF2H), ISWI ATPase, human (human (endogenous in K562)) (UniProt O60264); experiment: co-IP; K562 cells lysed in RIPA, gently sonicated; 100 ug precleared extract with anti-Ctcf or anti-Smarca5 3 hrs at 4 C, then protein A/protein G overnight; washes up to 500 mM NaCl; immunoblot

binding [1]: binds
Molecule: SMARCA5 (SNF2H), ISWI ATPase, human (from UniProt O60264 1-1052)

binding [2]: binds
Molecule: Smarca5 (Snf2h), ISWI ATPase, mouse (from UniProt Q91ZW3 1-1051)

binding [3]: binds
B1: Ctcf (CCCTC-binding factor), mouse (protein, UniProt Q61164 1-736)
chain: MEGEAVEAIVEESETFIKGKERKTYQRRREGGQEEDACHLPQNQTDGGEVVQDVNSSVQMVMMEQLDPTLLQMKTEVMEGTVAPEAEAAVDDTQIITLQVVNMEEQPINIGELQLVQVPVPVTVPVATTSVEELQGAYENEVSKEGLAESEPMICHTLPLPEGFQVVKVGANGEVETLEQGELPPQEDSSWQKDPDYQPPAKKTKKTKKSKLRYTEEGKDVDVSVYDFEEEQQEGLLSEVNAEKVVGNMKPPKPTKIKKKGVKKTFQCELCSYTCPRRSNLDRHMKSHTDERPHKCHLCGRAFRTVTLLRNHLNTHTGTRPHKCPDCDMAFVTSGELVRHRRYKHTHEKPFKCSMCDYASVEVSKLKRHIRSHTGERPFQCSLCSYASRDTYKLKRHMRTHSGEKPYECYICHARFTQSGTMKMHILQKHTENVAKFHCPHCDTVIARKSDLGVHLRKQHSYIEQGKKCRYCDAVFHERYALIQHQKSHKNEKRFKCDQCDYACRQERHMIMHKRTHTGEKPYACSHCDKTFRQKQLLDMHFKRYHDPNFVPAAFVCSKCGKTFTRRNTMARHADNCAGPDGVEGENGGETKKSKRGRKRKMRSKKEDSSDSEENAEPDLDDNEEEEEPAVEIEPEPEPQPQPPPPPQPVAPAPPPAKKRRGRPPGRTNQPKQNQPTAIIQVEDQNTGAIENIIVEVKKEPDAEPAEGEEEEAQAATTDAPNGDLTPEMILSMMDR

binding [4]: binds
B2: CTCF (CCCTC-binding factor), human (protein, UniProt P49711 1-727)
chain: MEGDAVEAIVEESETFIKGKERKTYQRRREGGQEEDACHLPQNQTDGGEVVQDVNSSVQMVMMEQLDPTLLQMKTEVMEGTVAPEAEAAVDDTQIITLQVVNMEEQPINIGELQLVQVPVPVTVPVATTSVEELQGAYENEVSKEGLAESEPMICHTLPLPEGFQVVKVGANGEVETLEQGELPPQEDPSWQKDPDYQPPAKKTKKTKKSKLRYTEEGKDVDVSVYDFEEEQQEGLLSEVNAEKVVGNMKPPKPTKIKKKGVKKTFQCELCSYTCPRRSNLDRHMKSHTDERPHKCHLCGRAFRTVTLLRNHLNTHTGTRPHKCPDCDMAFVTSGELVRHRRYKHTHEKPFKCSMCDYASVEVSKLKRHIRSHTGERPFQCSLCSYASRDTYKLKRHMRTHSGEKPYECYICHARFTQSGTMKMHILQKHTENVAKFHCPHCDTVIARKSDLGVHLRKQHSYIEQGKKCRYCDAVFHERYALIQHQKSHKNEKRFKCDQCDYACRQERHMIMHKRTHTGEKPYACSHCDKTFRQKQLLDMHFKRYHDPNFVPAAFVCSKCGKTFTRRNTMARHADNCAGPDGVEGENGGETKKSKRGRKRKMRSKKEDSSDSENAEPDLDDNEDEEEPAVEIEPEPEPQPVTPAPPPAKKRRGRPPGRTNQPKQNQPTAIIQVEDQNTGAIENIIVEVKKEPDAEPAEGEEEEAQPAATDAPNGDLTPEMILSMMDR
